Experimental data as given in PMC10813690.
No constants are given. Whether binding was seen depends on the method and setting.

Protein sequences, listed by entry. Tags and fused reporters are not part of them. Residues count along the entry.
UniProt P21860, residues 20-643: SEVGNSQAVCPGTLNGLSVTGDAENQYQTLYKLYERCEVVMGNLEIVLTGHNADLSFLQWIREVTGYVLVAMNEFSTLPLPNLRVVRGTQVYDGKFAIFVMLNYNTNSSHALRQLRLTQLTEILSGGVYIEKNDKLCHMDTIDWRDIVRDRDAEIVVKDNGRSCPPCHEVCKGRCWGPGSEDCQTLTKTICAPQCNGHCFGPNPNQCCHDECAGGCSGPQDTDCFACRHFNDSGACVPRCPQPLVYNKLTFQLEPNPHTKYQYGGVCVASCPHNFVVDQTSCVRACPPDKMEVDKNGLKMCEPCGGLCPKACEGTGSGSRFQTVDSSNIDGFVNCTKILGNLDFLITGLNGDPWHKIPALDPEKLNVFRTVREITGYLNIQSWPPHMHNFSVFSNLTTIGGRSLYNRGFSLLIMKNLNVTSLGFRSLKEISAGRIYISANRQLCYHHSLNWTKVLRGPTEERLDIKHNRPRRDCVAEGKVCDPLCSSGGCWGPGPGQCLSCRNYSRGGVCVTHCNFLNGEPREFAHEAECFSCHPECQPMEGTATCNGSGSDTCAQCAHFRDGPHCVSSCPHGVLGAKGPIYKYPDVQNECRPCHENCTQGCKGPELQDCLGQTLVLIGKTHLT

Columns and labels:
Assay in all cases: peptide or protein array; GDF-15-related receptor microarray: five recombinant human receptors printed in duplicate; biotinylated GDF-15 at 0.1, 1.0 and 10 μg/mL incubated 2 h at room temperature; detected with Cy3-streptavidin; biotin as negative control; both purified
[1] = biological target: epidermal growth factor receptor, recombinant human (human) (UniProt P00533)
[2] = biological target: T1, transforming growth factor-beta receptor I, recombinant human (human) (UniProt P36897)
T1 sequence: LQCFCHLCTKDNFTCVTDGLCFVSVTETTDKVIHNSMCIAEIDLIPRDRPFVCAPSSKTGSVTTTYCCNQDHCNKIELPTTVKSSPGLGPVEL

[3] = biological target: human epidermal growth factor receptor 3, recombinant human (human) (UniProt P21860)

Measured: binding

B1: Growth differentiation factor-15, biotinylated (ligand, UniProt Q99988 195-308)
chain: ARARNGDHCPLGPGRCCRLHTVRASLEDLGWADWVLSPREVQVTMCIGACPSQFRAANMHAQIKTSLHRLKPDTVPAPCCVPASYNPMVLIQKTDTGVSLQTYDDLLAKDCHCI
modifications: biotin (sites not given)
no binding (tested: 10 μg/mL): all assays above
